Reference: the supplement of paper PMC9233669
Variants at the floor of the assay are shown more often than the library holds them.

Experiments:
biotinyl-Trp-oxazolone = experiment: self-aminoacylation, catalytic enhancement (BWO) (fold over background); higher = more active; k-Seq, kA / k0A0; sequences stand for … in GGGAAUGGAUCCACAUCUACGAAUUC…UUCACUGCAGACUUGACGAAGCUG
Outline: (§1)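 Mutagenized RNA pools with a 21-nt variable region (0.43 μM) reacted with each biotinyl-aminoacyl-oxazolone at 2–1250 μM. Reactions ran in 50 μL HEPES/NaCl/KCl/MgCl2/CaCl2 buffer with 5% acetonitrile, pH 6.9–7.0, for 90 minutes at room temperature. Streptavidin-captured RNA was quantified by triplicate qPCR and Illumina sequencing, and per-sequence fraction reacted was fit to a pseudo-first-order model with 1000 bootstraps. Catalytic enhancement is median kA divided by the uncatalyzed rate, the low-activity peak of a bimodal Gaussian fit.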

biotinyl-Leu-oxazolone = experiment: self-aminoacylation, catalytic enhancement (BLO) (fold over background); higher = more active; k-Seq, kA / k0A0; sequences stand for … in GGGAAUGGAUCCACAUCUACGAAUUC…UUCACUGCAGACUUGACGAAGCUG
Outline: as §1

biotinyl-Val-oxazolone = experiment: self-aminoacylation, catalytic enhancement (BVO) (fold over background); higher = more active; k-Seq, kA / k0A0; sequences stand for … in GGGAAUGGAUCCACAUCUACGAAUUC…UUCACUGCAGACUUGACGAAGCUG
Outline: as §1

biotinyl-Ile-oxazolone = experiment: self-aminoacylation, catalytic enhancement (BIO) (fold over background); higher = more active; k-Seq, kA / k0A0; sequences stand for … in GGGAAUGGAUCCACAUCUACGAAUUC…UUCACUGCAGACUUGACGAAGCUG
Outline: as §1

biotinyl-Met-oxazolone = experiment: self-aminoacylation, catalytic enhancement (BMO) (fold over background); higher = more active; k-Seq, kA / k0A0; sequences stand for … in GGGAAUGGAUCCACAUCUACGAAUUC…UUCACUGCAGACUUGACGAAGCUG
Outline: as §1

biotinyl-Phe-oxazolone = experiment: self-aminoacylation, catalytic enhancement (BFO) (fold over background); higher = more active; k-Seq, kA / k0A0; sequences stand for … in GGGAAUGGAUCCACAUCUACGAAUUC…UUCACUGCAGACUUGACGAAGCUG
Outline: as §1

| Sequence | self-aminoacylation (biotinyl-Trp-oxazolone) | self-aminoacylation (biotinyl-Leu-oxazolone) | self-aminoacylation (biotinyl-Val-oxazolone) | self-aminoacylation (biotinyl-Ile-oxazolone) | self-aminoacylation (biotinyl-Met-oxazolone) | self-aminoacylation (biotinyl-Phe-oxazolone) |
| --- | --- | --- | --- | --- | --- | --- |
| AAGUUUGGUAAUAUUCGCAAG [Fam3.1 aminoacylation ribozyme variant] | 1.64 | 1.37 | 1.44 | 1.65 | 1.3 | 1.67 |
| CUACUACGAACAAUCGGUCUG [Fam1A.1 aminoacylation ribozyme variant] | 0.509 | 0.984 | 0.769 | 0.832 | 0.822 | 0.839 |
| UUACUUCAAACAAUCCGUCUG [Fam1A.1 aminoacylation ribozyme variant] | 1.77 | 1.06 | 1.2 | 1.33 | 1.28 | 1.92 |
| CGACACUUCUAGCAAUCGGUC [Fam1B.1 aminoacylation ribozyme variant] | 0.893 | 0.84 | 0.794 | 1.04 | 0.692 | 0.793 |
| CCACACUUGAAUCAAUCGGUC [Fam1B.1 aminoacylation ribozyme variant] | 0.774 | 0.719 | 0.892 | 0.868 | 0.659 | 0.753 |
| AUAACCCUGGUCAUCUAGUGA [Fam2.1 aminoacylation ribozyme variant] | 10.1 | 9.2 | 4.77 | 4.52 | 8.88 | 45.7 |
| AUUACCCUGGUUAUCGAUUGA [Fam2.1 aminoacylation ribozyme variant] | 1.03 | 0.672 | 0.677 | 0.645 | 0.633 | 0.733 |
| AUUGACCUAGGUCAUCGGAUG [Fam2.2 aminoacylation ribozyme variant] | 1.58 | 1.24 | 1.31 | 1.47 | 1.39 | 1.3 |
| CCACACUCAAAGCAAUCGGUC [Fam1B.1 aminoacylation ribozyme variant] | 1.04 | 0.706 | 1 | 1.14 | 0.868 | 0.917 |
| CUACAUCAAGCAAUCGGUCUG [Fam1A.1 aminoacylation ribozyme variant] | 0.762 | 0.909 | 0.807 | 0.834 | 0.695 | 0.956 |
| CGACUUUAAACAAUCGGUCUG [Fam1A.1 aminoacylation ribozyme variant] | 1.37 | 1.1 | 1.04 | 1.04 | 1.36 | 1.76 |
| AUUACCCCUGUCAUCGAGUGA [Fam2.1 aminoacylation ribozyme variant] | 7.28 | 5.42 | 3.14 | 3.62 | 4.96 | 28.2 |
| AAGUUUGCGCAUAGUCGCAAG [Fam3.1 aminoacylation ribozyme variant] | 1.35 | 0.712 | 1.06 | 0.99 | 0.774 | 2.97 |
| CCACACUUCAAGUAACCGGUC [Fam1B.1 aminoacylation ribozyme variant] | 0.824 | 0.957 | 1 | 0.968 | 1.05 | 0.767 |
| CUACGUCCAACAAUCGGUCUG [Fam1A.1 aminoacylation ribozyme variant] | 1.13 | 1.12 | 1.13 | 1.23 | 0.966 | 1.36 |
| CUACUUCCAACAAUCGGACUG [Fam1A.1 aminoacylation ribozyme variant] | 0.607 | 0.714 | 0.791 | 0.818 | 0.693 | 0.62 |
| AGGUUUGCUAAUAGUCGCUAG [Fam3.1 aminoacylation ribozyme variant] | 1.06 | 1.13 | 1.04 | 1.2 | 0.964 | 1.77 |
| AAGUUUGCUAAUAUUCGAAAG [Fam3.1 aminoacylation ribozyme variant] | 0.858 | 0.818 | 0.819 | 0.843 | 0.841 | 0.874 |
| CUACACUUCGAGCAAUCGGUC [Fam1B.1 aminoacylation ribozyme variant] | 0.701 | 0.914 | 0.788 | 0.745 | 0.653 | 1.17 |
| AAGUUUGCUACUAUUCGCAAG [Fam3.1 aminoacylation ribozyme variant] | 1.08 | 0.925 | 0.894 | 1.15 | 0.911 | 0.962 |
| AUUACCCUUAUCAUCGAGUGA [Fam2.1 aminoacylation ribozyme variant] | 16.7 | 13.2 | 6.51 | 5.68 | 14.1 | 60.8 |
| AAGUUUGCUAAUACUCGCGAG [Fam3.1 aminoacylation ribozyme variant] | 1.52 | 1.35 | 1.19 | 1.02 | 1.09 | 5.73 |
| CUACUUCUAACAUUCGGUCUG [Fam1A.1 aminoacylation ribozyme variant] | 0.668 | 0.949 | 0.828 | 0.89 | 0.89 | 0.835 |
| CCACACUUAAAGCAAUCGGUA [Fam1B.1 aminoacylation ribozyme variant] | 0.581 | 0.952 | 0.803 | 0.824 | 1.07 | 1.18 |
| AUUACCCUGGUCGUCGAGUGA [Fam2.1 aminoacylation ribozyme variant] | 1.28 | 1.17 | 1.13 | 1.06 | 1.21 | 1.68 |
| CUAUUACAAACAAUCGGUCUG [Fam1A.1 aminoacylation ribozyme variant] | 0.785 | 0.735 | 0.767 | 0.747 | 0.769 | 0.923 |

| Sequence | self-aminoacylation (biotinyl-Trp-oxazolone) | self-aminoacylation (biotinyl-Leu-oxazolone) | self-aminoacylation (biotinyl-Val-oxazolone) | self-aminoacylation (biotinyl-Ile-oxazolone) | self-aminoacylation (biotinyl-Met-oxazolone) | self-aminoacylation (biotinyl-Phe-oxazolone) |
| --- | --- | --- | --- | --- | --- | --- |
| CCACGCUUCUAGCAAUCGGUC [Fam1B.1 aminoacylation ribozyme variant] | 0.578 | 0.725 | 0.847 | 0.779 | 0.549 | 0.578 |
| CCACACUUCAAGCAGUGGGUC [Fam1B.1 aminoacylation ribozyme variant] | 0.775 | 0.845 | 1.22 | 0.786 | 0.96 | 0.562 |
| CCACACCUCAAGCAACCGGUC [Fam1B.1 aminoacylation ribozyme variant] | 1.41 | 1.38 | 1.82 | 1.45 | 1.12 | 0.96 |
| AAGUUUGCUAAUAGUCGGAUG [Fam3.1 aminoacylation ribozyme variant] | 1.52 | 1.08 | 1.09 | 1.35 | 1.46 | 0.931 |
| CCACAGUUCAAGCAACCGGUC [Fam1B.1 aminoacylation ribozyme variant] | 1.26 | 1.33 | 1.19 | 1.15 | 0.777 | 0.887 |
| CCACACUUCAACCAACCGGUC [Fam1B.1 aminoacylation ribozyme variant] | 1.69 | 1.03 | 1.07 | 1.08 | 0.626 | 0.57 |
| AGUCACCUAUGUCAUCGGGUG [Fam2.2 aminoacylation ribozyme variant] | 4.85 | 4.74 | 3.19 | 3.74 | 4.37 | 31.8 |
| AUUCACCUAUGUCAUCGGGAG [Fam2.2 aminoacylation ribozyme variant] | 0.79 | 0.996 | 0.981 | 0.962 | 1.06 | 1.06 |
| CGACUUCAAACAAUCCGUCUG [Fam1A.1 aminoacylation ribozyme variant] | 1.72 | 1.07 | 1.18 | 1.27 | 1.23 | 2.5 |
| CUACCUCAAACAACCGGUCUG [Fam1A.1 aminoacylation ribozyme variant] | 1.13 | 1.13 | 1.11 | 1.35 | 0.932 | 1.7 |
| AUUACCCUGGUCAUAGAGGGA [Fam2.1 aminoacylation ribozyme variant] | 0.547 | 1.63 | 1.33 | 1.26 | 1.35 | 1.17 |
| CCACUUCACACAAUCGGUCUG [Fam1A.1 aminoacylation ribozyme variant] | 0.937 | 1.02 | 1.51 | 1.28 | 1.31 | 1.68 |
| AUUAGCCUGGACAUCGAGUGA [Fam2.1 aminoacylation ribozyme variant] | 8.52 | 9.56 | 3.53 | 3.91 | 8.78 | 45.3 |
| AAGUUUGGAAAUAGUCGCAAG [Fam3.1 aminoacylation ribozyme variant] | 1.82 | 1.12 | 1.3 | 1.5 | 1.19 | 1.64 |
| CCACACUUCUAGCAAACGGUC [Fam1B.1 aminoacylation ribozyme variant] | 0.594 | 0.414 | 0.652 | 0.609 | 0.451 | 0.997 |
| AUUCACCGAGGUCAUCGGGAG [Fam2.2 aminoacylation ribozyme variant] | 1.74 | 1.66 | 1.61 | 1.44 | 2.23 | 4.74 |
| CCAUACUUCAAGCAAACGGUC [Fam1B.1 aminoacylation ribozyme variant] | 0.61 | 0.639 | 0.81 | 0.703 | 0.748 | 0.805 |
| AAGUUUGCUUAUCGUCGCAAG [Fam3.1 aminoacylation ribozyme variant] | 1.23 | 0.746 | 0.838 | 0.821 | 0.842 | 0.924 |
| CUACUACAAACAAUCAGUCUG [Fam1A.1 aminoacylation ribozyme variant] | 0.554 | 0.7 | 0.732 | 0.657 | 0.467 | 0.88 |
| CAAGACUUCAAGCAAUCGGUC [Fam1B.1 aminoacylation ribozyme variant] | 9.73 | 1.54 | 1.12 | 1.11 | 1.25 | 15.3 |
| CAACGCUUCAAGCAAUCGGUC [Fam1B.1 aminoacylation ribozyme variant] | 33.7 | 2.08 | 1.4 | 1.26 | 1.72 | 58.6 |
| CCACCCUUCUAGCAAUCGGUC [Fam1B.1 aminoacylation ribozyme variant] | 0.867 | 0.819 | 1 | 1.1 | 0.971 | 0.95 |
| CUACUUCAACCAAUCGUUCUG [Fam1A.1 aminoacylation ribozyme variant] | 0.831 | 0.468 | 0.655 | 0.583 | 0.499 | 0.974 |
| CAACACUUCUAGCAAUCGGUC [Fam1B.1 aminoacylation ribozyme variant] | 0.715 | 0.739 | 0.825 | 0.886 | 0.724 | 0.788 |
| AUCCCCCUAGGUCAUCGGGUG [Fam2.2 aminoacylation ribozyme variant] | 12.6 | 17.6 | 8.74 | 8.62 | 13.3 | 132 |
